Our source for the mCherry values is the supplement of paper PMC8256030.

Each structure is given as a SMILES string. Several values for one entry are separate records, joined by “and”; a condition that tells them apart may be missing. Identical values can stand only once. This is one part of the list. This data set is noisy: repeats of one test often differ as much as different tests do.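 HEK293T cells were given each compound shortly before transfection with a reporter in which red mCherry is followed by the SARS-CoV-2 frameshift element and then GFP in the −1 frame, so GFP appears only after frameshifting.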

The experiment relates to SARS-CoV-2 -1 PRF reporter mCherry-FSE-GFP(-1). The experiment can be described thus: mCherry (red) intensity as percent of control; higher = higher upstream reporter expression. To be noted: 10 µM; 24 h; HEK293T.
In the case of `CCCCCCOc1nsnc1C1=CCCN(C)C1` [xanomeline], the mCherry came out at 102%. `NC(=O)COC(=O)c1ccccc1Nc1cccc(C(F)(F)F)c1` [colfenamate] showed a mCherry of 136%. Consider `C[C@@H]1NC(=O)[C@@H](N)CNC(=O)[C@H](C2CCNC(=N)N2)NC(=O)/C(=C/NC(N)=O)NC(=O)[C@H](CNC(=O)CC(N)CCCN)NC1=O.N=C1NCC[C@H]([C@@H]2NC(=O)/C(=C/NC(N)=O)NC(=O)[C@H](CNC(=O)C[C@@H](N)CCCN)NC(=O)[C@H](CO)NC(=O)[C@@H](N)CNC2=O)N1` [Capreomycin], for which the mCherry came out at 45.3%. Then `CC(C)(C)CC(=O)OCC(=O)[C@@]12OC(C)(C)O[C@@H]1C[C@H]1[C@@H]3CCC4=CC(=O)C=C[C@]4(C)[C@@]3(F)[C@@H](O)C[C@@]12C` [triamcinolone hexacetonide], with 88.7%; and `CCOC(=O)[C@H](CCc1ccccc1)N[C@@H](C)C(=O)N1[C@H](C(=O)O)C[C@H]2CCCC[C@@H]21` [trandolapril], with 105% and 94.1%.

The compound `CCOC(=O)n1ccn(C)c1=S` [carbimazole] had a mCherry of 123%.

As to `O=C(NCC1CCCCN1)c1cc(OCC(F)(F)F)ccc1OCC(F)(F)F` (stereo not given) [Flecainide acetate], the mCherry came out at 83.5%. For the compound `COC(=O)C1=C(C)NC(C)=C(C(=O)OCCCN2CCC(c3ccccc3)(c3ccccc3)CC2)C1c1cccc([N+](=O)[O-])c1` (stereo not given) [dexniguldipine  iguldipine], the mCherry was determined as 25.8%. Then `CCCCS(=O)(=O)N[C@@H](Cc1ccc(OCCCCC2CCNCC2)cc1)C(=O)O` [tirofiban], with 145%; and `NS(=O)(=O)c1cc2c(cc1Cl)N=C(CSCc1ccccc1)NS2(=O)=O` [benzthiazide], with 96%. Turning to `C[C@H]1CN(C[C@H](Cc2ccccc2)C(=O)NCC(=O)O)CC[C@@]1(C)c1cccc(O)c1` [alvimopan], the mCherry was determined as 85.2%. `CN(C(=O)CN(CCO)CC(=O)N(C)C(C)(C)Cc1ccccc1)C(C)(C)Cc1ccccc1` [oxetacaine] had a mCherry of 88.8%. `CO[C@@H]1[C@@H](OC(N)=O)[C@@H](O)[C@H](Oc2ccc3c(O)c(NC(=O)c4ccc(O)c(CC=C(C)C)c4)c(=O)oc3c2C)OC1(C)C` [Novobiocin·Na] showed a mCherry of 91.3%. Compound `CC(C)(C)NC[C@H](O)COc1ccccc1C1CCCC1` gave a mCherry of 98.7%. As to `C[C@@H](n1cnc2cc(Cl)ccc2c1=O)[C@](O)(Cn1cncn1)c1ccc(F)cc1F` [albaconazole], the mCherry stood at 62.9%.

For `C[C@H]1[C@H](NC(=O)/C(=N\OC(C)(C)C(=O)O)c2csc(N)n2)C(=O)N1S(=O)(=O)O` [Azactam], the mCherry was 128%.

`N[C@@H]1[C@H]2CN(c3nc4c(cc3F)c(=O)c(C(=O)O)cn4-c3ccc(F)cc3F)C[C@@H]12` [trovafloxacin] had a mCherry of 97.8%.

The compound `CCN(CC)CCOC(=O)C(c1ccccc1)C1CCCCC1` (stereo not given) [drofenine] gave a mCherry of 110%. With `CC(C)(O)c1ccccc1CC[C@@H](SCC1(CC(=O)O)CC1)c1cccc(/C=C/c2ccc3ccc(Cl)cc3n2)c1` [montelukast] the figure was 88.4% and 88.3%; with `C[C@](N)(Cc1ccc(O)c(O)c1)C(=O)O`, 124%; with `CN[C@H](CC(C)C)C(=O)N[C@H]1C(=O)N[C@@H](CC(N)=O)C(=O)N[C@H]2C(=O)N[C@H]3C(=O)N[C@H](C(=O)N[C@H](C(=O)O)c4cc(O)cc(O)c4-c4cc3ccc4O)[C@H](O[C@H]3C[C@](C)(N)[C@@H](O)[C@H](C)O3)c3ccc(c(Cl)c3)Oc3cc2cc(c3O[C@@H]2O[C@H](CO)[C@@H](O)[C@H](O)[C@H]2O[C@H]2C[C@](C)(NCc3ccc(-c4ccc(Cl)cc4)cc3)[C@@H](O)[C@H](C)O2)Oc2ccc(cc2Cl)[C@H]1O` [oritavancin], 112%. Consider `C[C@]12CCC(=O)C=C1C=C[C@@H]1[C@@H]2CC[C@@]2(C)[C@H]1CC[C@@]21CCC(=O)O1`, for which the mCherry stood at 109%. With `CC[N+](C)(C)Cc1ccccc1Br` [Bretylol], the mCherry is 114%.

`O=C(O)[C@@H]1[C@H]2C[C@H]3c4[nH]c5ccccc5c4CCN3C[C@@H]2CC[C@@H]1O` [yohimbic acid] showed a mCherry of 85.2%. Then `S=C(NCCc1ccccn1)Nc1ccc(Br)cn1` [trovirdine], with 72.5%. With `CC(C)(C)c1cc(/C=C2\SC(=N)NC2=O)cc(C(C)(C)C)c1O` [darbufelone] the figure was 102%. With `CN1CCC[C@@H]1Cc1c[nH]c2ccc(CCS(=O)(=O)c3ccccc3)cc12` [eletriptan] the figure was 66.7%. In the case of `CO/N=C1\C[C@]2(C[C@@H]3C[C@@H](C/C=C(\C)C[C@@H](C)/C=C/C=C4\CO[C@@H]5[C@H](O)C(C)=C[C@@H](C(=O)O3)[C@]45O)O2)O[C@H](/C(C)=C/C(C)C)[C@H]1C`, the mCherry is 87.8%. `NC(=O)c1cc[n+](CC2=C(C(=O)O)N3C(=O)[C@@H](NC(=O)[C@@H](c4ccccc4)S(=O)(=O)[O-])[C@H]3SC2)cc1` gave a mCherry of 98.1%. Turning to `CCOc1ccc(Cc2nccc3cc(OCC)c(OCC)cc23)cc1OCC` [ethaverine], the mCherry came out at 79.1%. As to `CCC(=O)c1ccc(O)cc1` [paroxypropione], the mCherry came out at 98.7%. The compound `Cc1cccc(N(C)C(=S)Oc2ccc3ccccc3c2)c1` [tolnaftate] gave a mCherry of 111%. For `O=C(OCCOCCN1CCCCC1)N1c2ccccc2Sc2cccnc21` [pipazetate], the mCherry stood at 65.3%. In turn, `OC(c1cc(C(F)(F)F)nc2c(C(F)(F)F)cccc12)C1CCCCN1` (stereo not given) [mefloquine] gave a mCherry of 114%. Turning to `CCC(C)C(C(=O)OC1CC[N+](C)(C)CC1)c1ccccc1` (stereo not given) [pentapiperium metilsulfate], the mCherry was 85.5%. As to `CN(C)CC/C=C1/c2ccccc2Sc2ccc(Cl)cc21` [chlorprothixene], the mCherry amounted to 133%.

Compound `Cc1ccc(Nc2c(F)cccc2Cl)c(CC(=O)O)c1` [lumiracoxib] yielded a mCherry of 113%. Compound `COC(=O)[C@H]1[C@H]2C[C@@H]3c4[nH]c5cc(OC)ccc5c4CCN3C[C@H]2C[C@@H](OC(=O)c2cc(OC)c(OC)c(OC)c2)[C@@H]1OC` [reserpine] showed a mCherry of 50.7%. In turn, `CCCCCCCCCCCCN1CCCCCC1=O` [laurocapram] displayed a mCherry of 97.9%.

The compound `Oc1ccccc1-c1nnco1` [fenadiazole] yielded a mCherry of 88.9%.
